Laboratory results taken from patent publication US12492356B2, “Oxa-sandalwood-type fragrance compounds” (SYMRISE AG, priority 2020, dated 2025).

How the values were obtained:
[1] = Odor description (olfactory evaluation)
[2] = Tenacity on blotting-paper substrate (time until the odor can no longer be detected)
Description: Tenacity (the so-called lasting effect), a secondary but indeed important property of fragrance compounds, which is also known as adsorptive capacity, describes a compound's ability to adhere to a substrate. Therefore, tenacity describes the ability of a perfume to last, or a fragrance note to retain its characteristic odor. Tenacity thus typically refers to the long-term effectiveness of the fragrance in a perfumed product such as when applied on the skin after use e.g. of a shower gel/toilet soap/deodorant. […] Substantivity describes the ability of a substance to be adsorbed from a usually aqueous phase onto a substrate or also its ability to remain on a substrate after a washing or rinsing operation. This effect is in particular manifested on substrates such as skin, hair and textile fibers (for example cotton, linen, wool and/or synthetic fibers). Tenacity is measured over a defined period of time and refers to samples adhered to a blotting-paper substrate in a defined amount, concentration, temperature and humidity and which are tested by a single member or a panel of experts. The tenacity refers to the time until which the odor can no longer be detected. Initially, for the first day the tenacity is measured hourly, thereafter in days.

Compound	Odor description [1]	Tenacity [2] [days]
COCC12CC1CC(CC1CC1(C)C(C)O)C2(C)C (stereo not shown) [Compound 8, 1-[2-[[1-(methoxymethyl)-2,2-dimethyl-3-bicyclo[3.1.0]hexanyl]methyl]-1-methyl-cyclopropyl]ethanol]	creamy, blooming, sweet	–
COCC1=CCC(C/C=C(\C)CO)C1(C)C (stereo not shown) [Compound 1, 4-[3-(Methoxymethyl)-2,2-dimethyl-cyclopent-3-en-1-yl]-2-methyl-but-2-en-1-ol]	sandal, woody	55
COCC12CC1CC(CC=O)C2(C)C (stereo not shown) [Compound A, 2-[1-(Methoxymethyl)-2,2-dimethyl-3-bicyclo[3.1.0]hexan-yl]acetaldehyde]	camphor, pine, raspberry, spicy, heliotropin	–
C=C(CC(C)CO)C1CC=C(COC)C1(C)C (stereo not shown) [Compound 4, 4-[3-(Methoxymethyl)-2,2-dimethyl-cyclopent-3-en-1-yl]-2-methyl-pent-4-en-1-ol]	woody, sandal, creamy	–
CC/C(=C\CC1CC=C(COC)C1(C)C)CO (stereo not shown) [Compound 3, 2-Ethyl-4-[3-(methoxymethyl)-2,2-dimethyl-cyclopent-3-en-1-yl]but-2-en-1-ol]	sandal, woody, creamy	22
COCC1=CCC(CCO)C1(C)C (stereo not shown) [Compound D, 2-[3-(Methoxymethyl)-2,2-dimethyl-cyclopent-3-en-1-yl]-ethanol]	fresh, woody, fruity and citrus	–
COCC12CC1CC(C/C=C(\C)CO)C2(C)C (stereo not shown) [Compound 6, 4-[1-(Methoxymethyl)-2,2-dimethyl-3-bicyclo[3.1.0]hexan-yl]-2-methyl-but-2-en-1-ol]	woody, weaker than compound 3	–
C=C(CO)C1CC=C(COC)C1(C)C (stereo not shown) [2-[3-(methoxymethyl)-2,2-dimethyl-cyclopent-3-en-1-yl]prop-2-en-1-ol]	fresh, fruity, weak	–
COCC1CCC(C/C=C(\C)CO)C1(C)C (stereo not shown) [Compound 5, 4-[3-(Methoxymethyl)-2,2-dimethyl-cyclo-pentyl]-2-methyl-but-2-en-1-ol]	woody, weaker than compound 3	–
COCC1=CCC(CC=O)C1(C)C (stereo not shown) [Compound C, 2-[3-(Methoxymethyl)-2,2-dimethyl-cyclopent-3-en-1-yl]-acetaldehyde]	aldehydic, milky, almondy, pistachio, edible	–
COCC1=CCC(CCC(C)CO)C1(C)C (stereo not shown) [Compound 2, 4-[3-(Methoxymethyl)-2,2-dimethyl-cyclopent-3-en-1-yl]-2-methyl-butan-1-ol]	sandal, woody, creamy	25
CC/C(=C\CC1CC2CC2(COC)C1(C)C)CO (stereo not shown) [Compound 7, 2-Ethyl-4-[1-(methoxymethyl)-2,2-dimethyl-3-bicyclo[3.1.0]hexanyl]but-2-en-1-ol]	woody, weaker than compound 3	–
COCC1CCC(CC=O)C1(C)C (stereo not shown) [Compound B, 2-[3-(Methoxymethyl)-2,2-dimethyl-cyclopentyl]acetaldehyde]	herbal, sorrel, green	–

Some compounds share one wording; it may come from a single statement.
